According to the supplement of paper PMC4604168 (melanoma cell lines):
The other results are listed elsewhere or left out. Repeats are few or missing, and single values can be far off.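 The apoptosis fraction was the count of cleaved-PARP antibody-stained nuclei relative to all DNA-stained nuclei, imaged in 1,536-well plates. Screening doses were set so most cells survived, and baseline and induced cleaved-PARP levels vary greatly across cell lines.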

How the values were obtained:
Assay in all cases: cleaved PARP positive nuclei fraction relative to DMSO control; melanoma cells; higher = more apoptosis
Details in all cases: library dose: low library concentration; 72 h
[1] = system: 501Mel
[2] = system: A101D
[3] = system: A2058
[4] = system: A375
[5] = system: C32
[6] = system: CBRC008 (line from a melanoma biopsy)
[7] = system: CBRC014 (line from a melanoma biopsy)
[8] = system: CBRC016 (line from a melanoma biopsy)
[9] = system: CBRC017 (line from a melanoma biopsy)
[10] = system: CBRC034 (line from a melanoma biopsy)
[11] = system: COLO792
[12] = system: COLO800
[13] = system: COLO829
[14] = system: G361
[15] = system: IPC-298
[16] = system: IST-MEL1
[17] = system: LB2518-MEL
[18] = system: LOXIMVI
[19] = system: MEL-HO

Row | Compound | cleaved PARP positive nuclei fraction [1] [%] | cleaved PARP positive nuclei fraction [2] [%] | cleaved PARP positive nuclei fraction [3] [%] | cleaved PARP positive nuclei fraction [4] [%] | cleaved PARP positive nuclei fraction [5] [%] | cleaved PARP positive nuclei fraction [6] [%] | cleaved PARP positive nuclei fraction [7] [%] | cleaved PARP positive nuclei fraction [8] [%] | cleaved PARP positive nuclei fraction [9] [%] | cleaved PARP positive nuclei fraction [10] [%] | cleaved PARP positive nuclei fraction [11] [%] | cleaved PARP positive nuclei fraction [12] [%] | cleaved PARP positive nuclei fraction [13] [%] | cleaved PARP positive nuclei fraction [14] [%] | cleaved PARP positive nuclei fraction [15] [%] | cleaved PARP positive nuclei fraction [16] [%] | cleaved PARP positive nuclei fraction [17] [%] | cleaved PARP positive nuclei fraction [18] [%] | cleaved PARP positive nuclei fraction [19] [%]
1 | Cc1cc(Nc2cc(N3CCN(C)CC3)nc(/C=C/c3ccccc3)n2)n[nH]1 + OCc1c[nH]c2ccccc12 [Indole-3-carbinol] (first compound 0.04 µM, partner dose 0.8 µM) | 251 | 41.9 | 58 | 170 | 120 | 49.5 | 87.4 | 75 | 88 | 40.7 | 117 | 101 | 45 | 84.5 | 86.4 | 127 | 243 | 46.3 | 65.3
2 | Nc1ncn([C@H]2C[C@H](O)[C@@H](CO)O2)c(=O)n1 [decitabine] + Cc1nc(Nc2ncc(C(=O)Nc3c(C)cccc3Cl)s2)cc(N2CCN(CCO)CC2)n1 [dasatanib] (first compound 0.1 µM, partner dose 0.004 µM) | 101 | 109 | 198 | 75.9 | 286 | 138 | 125 | 66.6 | 143 | 535 | 235 | 239 | 139 | 161 | 143 | 104 | 64.2 | 203 | 105
3 | CN1CCN(c2ccc3nc(-c4c(N)c5c(F)cccc5[nH]c4=O)[nH]c3c2)CC1 [Dovitinib] + Nc1ncn([C@H]2C[C@H](O)[C@@H](CO)O2)c(=O)n1 [decitabine] (first compound 0.1 µM, partner dose 0.1 µM) | 84.3 | 166 | 347 | 134 | 260 | 102 | 96.5 | 167 | 126 | 64.7 | 54.6 | 129 | 105 | 282 | 59.7 | 136 | 227 | 34 | 154
4 | CS(=O)(=O)CCNCc1ccc(-c2ccc3ncnc(Nc4ccc(OCc5cccc(F)c5)c(Cl)c4)c3c2)o1 [lapatinib] + Nc1ccn([C@@H]2O[C@H](CO)[C@@H](O)C2(F)F)c(=O)n1 [gemcitabine] (first compound 0.8 µM, partner dose 0.0004 µM) | 124 | 267 | 73.3 | 266 | 65.7 | 112 | 115 | 52 | 234 | 67.8 | 106 | 114 | 166 | 95.5 | 46.1 | 63.2 | 121 | 193 | 407
5 | O=C(O)c1ccc2c(c1)nc(Nc1cccc(Cl)c1)c1ccncc12 + Nc1ncn([C@H]2C[C@H](O)[C@@H](CO)O2)c(=O)n1 [decitabine] (first compound 0.4 µM, partner dose 0.1 µM) | 111 | 151 | 332 | 222 | 71.7 | 77.4 | 214 | 440 | 273 | 174 | 78 | 133 | 285 | 131 | 141 | 152 | 120 | 151 | 124
6 | O=C(O)c1ccc2c(c1)nc(Nc1cccc(Cl)c1)c1ccncc12 + C=CCNC1=C2C[C@@H](C)C[C@H](OC)[C@H](O)[C@@H](C)/C=C(\C)[C@H](OC(N)=O)[C@@H](OC)/C=C\C=C(/C)C(=O)NC(=CC1=O)C2=O [Tanespimycin] (first compound 0.4 µM, partner dose 0.002 µM) | 81.7 | 62.7 | 225 | 99 | 73.3 | 376 | 144 | 304 | 319 | 266 | 96.2 | 70.2 | 97.2 | 92.1 | 29.9 | 188 | 87.6 | 244 | 125
7 | O=C(O)c1ccc2c(c1)nc(Nc1cccc(Cl)c1)c1ccncc12 + Cn1c(Nc2ccc(C(F)(F)F)cc2)nc2cc(Oc3ccnc(-c4ncc(C(F)(F)F)[nH]4)c3)ccc21 [CHIR265] (first compound 0.4 µM, partner dose 0.08 µM) | 289 | 151 | 248 | 660 | 98.4 | 109 | 147 | 245 | 237 | 281 | 466 | 184 | 109 | 118 | 189 | 120 | 344 | 37.8 | 41.3
8 | CS(=O)(=O)CCNCc1ccc(-c2ccc3ncnc(Nc4ccc(OCc5cccc(F)c5)c(Cl)c4)c3c2)o1 [lapatinib] + Cn1c(Nc2ccc(C(F)(F)F)cc2)nc2cc(Oc3ccnc(-c4ncc(C(F)(F)F)[nH]4)c3)ccc21 [CHIR265] (first compound 0.8 µM, partner dose 0.08 µM) | 286 | 157 | 33.4 | 794 | 91.9 | 68 | 111 | 140 | 130 | 133 | 330 | 53.7 | 89 | 186 | 91.8 | 73.2 | 162 | 160 | 113
9 | Cn1c(=O)n(-c2ccc(C(C)(C)C#N)cc2)c2c3cc(-c4cnc5ccccc5c4)ccc3ncc21 + COc1ccc(Cl)c(Nc2nc3ccccc3nc2NS(=O)(=O)c2cccc(NC(=O)C(C)(C)N)c2)c1 [XL147] (first compound 0.004 µM, partner dose 0.8 µM) | 120 | 53.5 | 90.5 | 138 | 84.9 | 192 | 202 | 120 | 117 | 508 | 135 | 49 | 220 | 92.7 | 140 | 223 | 106 | 182 | 222
10 | Nc1ncn([C@H]2C[C@H](O)[C@@H](CO)O2)c(=O)n1 [decitabine] + Clc1ccc(Nc2nnc(Cc3ccncc3)c3ccccc23)cc1 [vatalanib] (first compound 0.1 µM, partner dose 2 µM) | 147 | 59.3 | 207 | 113 | 85.9 | 288 | 110 | 387 | 98.9 | 131 | 112 | 106 | 84.6 | 305 | 126 | 76.6 | 104 | 72.5 | 136

Single entries from the entries so far.
CN1CCN(c2ccc3nc(-c4c(N)c5c(F)cccc5[nH]c4=O)[nH]c3c2)CC1 [Dovitinib] + Nc1ncn([C@H]2C[C@H](O)[C@@H](CO)O2)c(=O)n1 [decitabine] (first compound 0.1 µM, partner dose 0.1 µM) – cleaved PARP positive nuclei fraction [1] [%]: 84.3
CS(=O)(=O)CCNCc1ccc(-c2ccc3ncnc(Nc4ccc(OCc5cccc(F)c5)c(Cl)c4)c3c2)o1 [lapatinib] + Cn1c(Nc2ccc(C(F)(F)F)cc2)nc2cc(Oc3ccnc(-c4ncc(C(F)(F)F)[nH]4)c3)ccc21 [CHIR265] (first compound 0.8 µM, partner dose 0.08 µM) – cleaved PARP positive nuclei fraction [9] [%]: 130
